Consider four substances from article PMC8592882.

The chains behind the UniProt entries cited, without tags or fusion partners. Where a name states a change or a piece, a line headed by the entry shows the natural chain unless it says otherwise.
UniProt Q63009: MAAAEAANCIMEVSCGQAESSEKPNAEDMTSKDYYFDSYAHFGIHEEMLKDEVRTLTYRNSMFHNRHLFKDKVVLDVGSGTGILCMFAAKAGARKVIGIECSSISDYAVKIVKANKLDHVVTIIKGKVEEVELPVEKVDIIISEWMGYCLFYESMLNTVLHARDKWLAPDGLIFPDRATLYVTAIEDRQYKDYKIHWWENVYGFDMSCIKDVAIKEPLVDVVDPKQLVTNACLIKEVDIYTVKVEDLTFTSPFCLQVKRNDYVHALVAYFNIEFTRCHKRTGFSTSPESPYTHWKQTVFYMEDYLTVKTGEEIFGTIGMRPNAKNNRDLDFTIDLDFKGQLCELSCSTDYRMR

Results are given in words; binding and its absence hold for the method and conditions named. Some binding calls cover weakened binding; strength is not graded here.

The target of assay [1] is W197L/Y202N/M206V rPRMT1 (R. norvegicus) (UniProt Q63009). Put plainly: AUC; sedimentation velocity, 3 uM protein, 50 mM sodium phosphate, 2 mM EDTA, pH 7.6, 2 mM DTT added to appropriate tubes, 20 C, 40,000 rpm, absorbance at 280 nm, c(s) analysis in Sedfit; both purified.
For assay [2] the target is unchanged. The experiment in a line: native gel or EMSA; 4 to 20% native PAGE with western detection (anti-PRMT1 or anti-His); protein at 750 nM, 1 uM and 2 uM in 50 mM sodium phosphate, 1 mM EDTA, 1 mM DTT, 10% glycerol, pH 7.6; run at 4 C; bands assigned with WT PRMT1 (tetramer) and a tetramerization-deficient mutant (dimer) as standards; both purified.
In assay [3] the target is M206V rPRMT1 (R. norvegicus) (UniProt Q63009). The description is as above.
Assay [4] deals with W197L rPRMT1 (R. norvegicus) (UniProt Q63009). The assay is described as above.
Assay [5] concerns the target Y202N rPRMT1 (R. norvegicus) (UniProt Q63009). The assay is described as above.

As to “W197L/Y202N/M206V rPRMT1 (from UniProt Q63009 14-353) (enzyme)”, the binding entry in assay [1] and in assay [2] was “binds weakly” in each case.
In the case of “M206V rPRMT1 (from UniProt Q63009 14-353) (enzyme)”, in assay [3], the binding result is given as “binds weakly”.
Turning to “W197L rPRMT1 (from UniProt Q63009 14-353) (enzyme)”, the binding result in assay [4] was “binds weakly”.
Take “Y202N rPRMT1 (from UniProt Q63009 14-353) (enzyme)”: the binding result in assay [5] is “binds weakly”.
